Test results from paper PMC7348071.
These are yes or no findings as the source states them, for the method shown. Binding seen in cells or lysates may run through a third protein. Some binding calls cover weakened binding; strength is not graded here. Sequences can lack the tags named with a protein.

T1: Fibulin-1C (untagged, overexpressed) (human) (UniProt P23142)
T1 sequence: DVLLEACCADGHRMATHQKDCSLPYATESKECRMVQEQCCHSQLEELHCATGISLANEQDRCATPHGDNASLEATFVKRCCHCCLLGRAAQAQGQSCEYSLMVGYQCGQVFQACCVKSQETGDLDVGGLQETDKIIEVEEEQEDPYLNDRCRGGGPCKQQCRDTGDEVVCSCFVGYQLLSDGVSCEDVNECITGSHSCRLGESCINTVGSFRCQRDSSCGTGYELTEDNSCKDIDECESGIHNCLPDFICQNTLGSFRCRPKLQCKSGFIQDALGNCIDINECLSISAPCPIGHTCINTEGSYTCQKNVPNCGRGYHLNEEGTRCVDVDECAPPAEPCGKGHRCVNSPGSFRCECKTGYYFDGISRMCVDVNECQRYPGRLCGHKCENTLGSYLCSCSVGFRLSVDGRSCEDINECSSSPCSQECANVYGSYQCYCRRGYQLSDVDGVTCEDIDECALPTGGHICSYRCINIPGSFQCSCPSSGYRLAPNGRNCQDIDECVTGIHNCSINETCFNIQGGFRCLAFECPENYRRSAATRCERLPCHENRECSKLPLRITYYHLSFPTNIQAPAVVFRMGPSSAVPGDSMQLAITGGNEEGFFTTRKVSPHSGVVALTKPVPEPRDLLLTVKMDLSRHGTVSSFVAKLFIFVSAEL

T2: Fibulin-1D (untagged, overexpressed) (human) (UniProt P23142)
T2 sequence: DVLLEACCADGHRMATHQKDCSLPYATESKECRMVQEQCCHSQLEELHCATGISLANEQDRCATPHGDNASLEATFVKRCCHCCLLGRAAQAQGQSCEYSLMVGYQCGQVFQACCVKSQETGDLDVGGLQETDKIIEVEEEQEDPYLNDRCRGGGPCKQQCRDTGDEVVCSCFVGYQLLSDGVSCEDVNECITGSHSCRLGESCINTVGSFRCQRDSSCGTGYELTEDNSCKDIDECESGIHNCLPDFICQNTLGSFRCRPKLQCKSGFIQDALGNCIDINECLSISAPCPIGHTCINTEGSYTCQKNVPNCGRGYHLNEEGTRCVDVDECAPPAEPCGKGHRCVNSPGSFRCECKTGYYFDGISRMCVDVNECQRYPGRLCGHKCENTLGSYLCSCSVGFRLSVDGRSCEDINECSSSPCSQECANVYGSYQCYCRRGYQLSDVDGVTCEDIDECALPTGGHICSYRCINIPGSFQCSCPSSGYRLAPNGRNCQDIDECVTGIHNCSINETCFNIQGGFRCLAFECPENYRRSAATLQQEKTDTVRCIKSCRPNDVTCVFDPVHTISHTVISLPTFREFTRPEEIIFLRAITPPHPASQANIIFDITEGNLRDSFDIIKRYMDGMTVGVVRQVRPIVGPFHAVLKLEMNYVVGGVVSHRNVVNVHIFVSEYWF


Legend:
Assay in all cases: co-IP; HEK293T co-transfected with untagged FBLN1C or FBLN1D and EGFR-GFP; 500 ug lysate (1% NP40, 120 mM NaCl, HEPES 7.8); IP with anti-FBLN1 or anti-EGFR antibody on Protein A sepharose at 4 C, western blot; also done on serum starved cells with and without EGF (100 ng/ml, 5 min), association unaffected
[1] = molecular target: T1, Fibulin-1C (untagged, overexpressed) (human)
[2] = molecular target: T2, Fibulin-1D (untagged, overexpressed) (human)
[3] = molecular target: EGFR-GFP (GFP tagged Epidermal Growth Factor Receptor, overexpressed) (UniProt P00533)

| Molecule | binding [1] | binding [2] | binding [3] |
| --- | --- | --- | --- |
| EGFR-GFP (GFP tagged Epidermal Growth Factor Receptor, overexpressed) (from UniProt P00533 25-1210) | binds | binds | – |
| Fibulin-1C (untagged, overexpressed) (protein, UniProt P23142-4 30-683) DVLLEACCADGHRMATHQKDCSLPYATESKECRMVQEQCCHSQLEELHCATGISLANEQDRCATPHGDNASLEATFVKRCCHCCLLGRAAQAQGQSCEYSLMVGYQCGQVFQACCVKSQETGDLDVGGLQETDKIIEVEEEQEDPYLNDRCRGGGPCKQQCRDTGDEVVCSCFVGYQLLSDGVSCEDVNECITGSHSCRLGESCINTVGSFRCQRDSSCGTGYELTEDNSCKDIDECESGIHNCLPDFICQNTLGSFRCRPKLQCKSGFIQDALGNCIDINECLSISAPCPIGHTCINTEGSYTCQKNVPNCGRGYHLNEEGTRCVDVDECAPPAEPCGKGHRCVNSPGSFRCECKTGYYFDGISRMCVDVNECQRYPGRLCGHKCENTLGSYLCSCSVGFRLSVDGRSCEDINECSSSPCSQECANVYGSYQCYCRRGYQLSDVDGVTCEDIDECALPTGGHICSYRCINIPGSFQCSCPSSGYRLAPNGRNCQDIDECVTGIHNCSINETCFNIQGGFRCLAFECPENYRRSAATRCERLPCHENRECSKLPLRITYYHLSFPTNIQAPAVVFRMGPSSAVPGDSMQLAITGGNEEGFFTTRKVSPHSGVVALTKPVPEPRDLLLTVKMDLSRHGTVSSFVAKLFIFVSAEL | – | – | binds |
| Fibulin-1D (untagged, overexpressed) (protein, UniProt P23142-1 30-703) DVLLEACCADGHRMATHQKDCSLPYATESKECRMVQEQCCHSQLEELHCATGISLANEQDRCATPHGDNASLEATFVKRCCHCCLLGRAAQAQGQSCEYSLMVGYQCGQVFQACCVKSQETGDLDVGGLQETDKIIEVEEEQEDPYLNDRCRGGGPCKQQCRDTGDEVVCSCFVGYQLLSDGVSCEDVNECITGSHSCRLGESCINTVGSFRCQRDSSCGTGYELTEDNSCKDIDECESGIHNCLPDFICQNTLGSFRCRPKLQCKSGFIQDALGNCIDINECLSISAPCPIGHTCINTEGSYTCQKNVPNCGRGYHLNEEGTRCVDVDECAPPAEPCGKGHRCVNSPGSFRCECKTGYYFDGISRMCVDVNECQRYPGRLCGHKCENTLGSYLCSCSVGFRLSVDGRSCEDINECSSSPCSQECANVYGSYQCYCRRGYQLSDVDGVTCEDIDECALPTGGHICSYRCINIPGSFQCSCPSSGYRLAPNGRNCQDIDECVTGIHNCSINETCFNIQGGFRCLAFECPENYRRSAATLQQEKTDTVRCIKSCRPNDVTCVFDPVHTISHTVISLPTFREFTRPEEIIFLRAITPPHPASQANIIFDITEGNLRDSFDIIKRYMDGMTVGVVRQVRPIVGPFHAVLKLEMNYVVGGVVSHRNVVNVHIFVSEYWF | – | – | binds |
